Test results from paper PMC3145617.
No constants are given. Whether binding was seen depends on the method and setting. Binding seen in cells or lysates may run through a third protein. Some results given as binding are weak or reduced against the parent protein; the word gives no strength.

By UniProt entry, the sequences of proteins in these tests, tags left out.
UniProt Q24562: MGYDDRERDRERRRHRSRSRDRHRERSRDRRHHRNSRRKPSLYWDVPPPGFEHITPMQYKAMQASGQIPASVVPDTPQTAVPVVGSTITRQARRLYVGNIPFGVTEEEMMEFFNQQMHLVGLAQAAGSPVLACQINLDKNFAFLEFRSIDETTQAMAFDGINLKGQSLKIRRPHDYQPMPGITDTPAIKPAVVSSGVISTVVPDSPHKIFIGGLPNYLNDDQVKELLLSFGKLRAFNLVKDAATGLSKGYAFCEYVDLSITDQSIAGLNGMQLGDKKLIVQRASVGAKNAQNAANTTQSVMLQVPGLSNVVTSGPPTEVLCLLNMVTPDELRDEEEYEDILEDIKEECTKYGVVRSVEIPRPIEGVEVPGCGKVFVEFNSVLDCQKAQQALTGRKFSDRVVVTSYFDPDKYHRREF

Assays:
Test in all cases: co-IP; sonicated nuclear extract of w1 embryos (<24 hours); antibody linked protein AG beads; co-IP buffer 20 mM Hepes pH 7.5, 150 mM NaCl, 250 mM sucrose, 0.05% NP-40, 0.5% Triton-X 100, with RNAsin; 4°C overnight; blots probed with anti-eIF4E
[1] = biological target: T1, Scute (Drosophila melanogaster (endogenous in embryos)) (UniProt P10084)
T1 sequence: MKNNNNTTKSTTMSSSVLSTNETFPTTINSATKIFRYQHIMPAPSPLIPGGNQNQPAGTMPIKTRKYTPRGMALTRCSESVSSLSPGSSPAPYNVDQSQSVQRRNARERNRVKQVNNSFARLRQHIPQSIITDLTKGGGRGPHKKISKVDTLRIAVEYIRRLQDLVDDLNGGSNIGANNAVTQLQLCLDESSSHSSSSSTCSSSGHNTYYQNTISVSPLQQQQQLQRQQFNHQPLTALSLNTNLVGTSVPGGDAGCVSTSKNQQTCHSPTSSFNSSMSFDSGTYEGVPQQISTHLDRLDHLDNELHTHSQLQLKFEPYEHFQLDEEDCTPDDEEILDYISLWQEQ

[2] = biological target: U2AF50 (Drosophila melanogaster (endogenous in embryos)) (UniProt Q24562)
[3] = biological target: T2, U1 snRNP protein U1-70K (Drosophila melanogaster (endogenous in embryos)) (UniProt P17133)
T2 sequence: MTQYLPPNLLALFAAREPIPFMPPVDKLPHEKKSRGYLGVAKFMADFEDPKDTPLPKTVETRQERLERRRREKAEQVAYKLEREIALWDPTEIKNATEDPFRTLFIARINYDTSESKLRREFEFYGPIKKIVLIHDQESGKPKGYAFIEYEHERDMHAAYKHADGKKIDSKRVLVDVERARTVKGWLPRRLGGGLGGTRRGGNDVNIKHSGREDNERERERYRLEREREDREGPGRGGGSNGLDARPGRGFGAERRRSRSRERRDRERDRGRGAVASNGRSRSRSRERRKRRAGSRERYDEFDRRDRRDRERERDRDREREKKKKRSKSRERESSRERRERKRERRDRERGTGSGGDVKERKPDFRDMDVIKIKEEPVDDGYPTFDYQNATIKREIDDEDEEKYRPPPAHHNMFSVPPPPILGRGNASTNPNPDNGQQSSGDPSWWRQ

[4] = biological target: T3, U2AF38 (Drosophila melanogaster (endogenous in embryos)) (UniProt Q94535)
T3 sequence: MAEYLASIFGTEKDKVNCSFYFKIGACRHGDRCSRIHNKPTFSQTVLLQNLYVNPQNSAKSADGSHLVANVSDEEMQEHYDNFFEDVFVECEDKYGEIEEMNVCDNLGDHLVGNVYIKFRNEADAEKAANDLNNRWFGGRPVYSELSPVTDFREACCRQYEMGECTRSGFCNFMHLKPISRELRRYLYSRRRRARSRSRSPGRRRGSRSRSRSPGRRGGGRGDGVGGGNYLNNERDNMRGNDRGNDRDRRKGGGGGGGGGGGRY

[5] = biological target: T4, Wilms' Tumor 1 Associated Protein Fl(2)d (Drosophila melanogaster (endogenous in embryos)) (UniProt Q9Y091)
T4 sequence: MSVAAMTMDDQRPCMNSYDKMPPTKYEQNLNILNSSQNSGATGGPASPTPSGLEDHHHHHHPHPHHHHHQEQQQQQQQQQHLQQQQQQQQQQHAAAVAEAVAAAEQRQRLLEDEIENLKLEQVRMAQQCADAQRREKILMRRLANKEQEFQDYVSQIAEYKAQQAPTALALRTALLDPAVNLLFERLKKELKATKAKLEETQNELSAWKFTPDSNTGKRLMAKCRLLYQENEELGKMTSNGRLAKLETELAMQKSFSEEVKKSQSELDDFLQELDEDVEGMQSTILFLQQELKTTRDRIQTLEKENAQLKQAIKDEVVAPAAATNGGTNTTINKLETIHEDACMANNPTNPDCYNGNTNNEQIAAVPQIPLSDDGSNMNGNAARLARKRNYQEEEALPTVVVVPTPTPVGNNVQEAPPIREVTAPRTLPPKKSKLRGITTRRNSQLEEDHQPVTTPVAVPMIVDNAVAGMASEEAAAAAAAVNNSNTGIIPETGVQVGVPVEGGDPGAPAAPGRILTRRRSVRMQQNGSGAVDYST

binding [1]: no binding | binding [2]: binds | binding [3]: binds | binding [4]: binds | binding [5]: binds
B1: eukaryotic translation initiation factor eIF4E (cap binding protein) (protein, UniProt P48598 1-259)
chain: MQSDFHRMKNFANPKSMFKTSAPSTEQGRPEPPTSAAAPAEAKDVKPKEDPQETGEPAGNTATTTAPAGDDAVRTEHLYKHPLMNVWTLWYLENDRSKSWEDMQNEITSFDTVEDFWSLYNHIKPPSEIKLGSDYSLFKKNIRPMWEDAANKQGGRWVITLNKSSKTDLDNLWLDVLLCLIGEAFDHSDQICGAVINIRGKSNKISIWTADGNNEEAALEIGHKLRDALRLGRNNSLQYQLHKDTMVKQGSNVKSIYTL
